In paper PMC10298753:
These are yes or no findings as the source states them, for the method shown. Binding seen in cells or lysates may run through a third protein. Some results given as binding are weak or reduced against the parent protein; the word gives no strength. Tags and fused reporters may be left off the sequences shown.

T1: Flag-IFT81 (UniProt Q8WYA0)
T1 sequence: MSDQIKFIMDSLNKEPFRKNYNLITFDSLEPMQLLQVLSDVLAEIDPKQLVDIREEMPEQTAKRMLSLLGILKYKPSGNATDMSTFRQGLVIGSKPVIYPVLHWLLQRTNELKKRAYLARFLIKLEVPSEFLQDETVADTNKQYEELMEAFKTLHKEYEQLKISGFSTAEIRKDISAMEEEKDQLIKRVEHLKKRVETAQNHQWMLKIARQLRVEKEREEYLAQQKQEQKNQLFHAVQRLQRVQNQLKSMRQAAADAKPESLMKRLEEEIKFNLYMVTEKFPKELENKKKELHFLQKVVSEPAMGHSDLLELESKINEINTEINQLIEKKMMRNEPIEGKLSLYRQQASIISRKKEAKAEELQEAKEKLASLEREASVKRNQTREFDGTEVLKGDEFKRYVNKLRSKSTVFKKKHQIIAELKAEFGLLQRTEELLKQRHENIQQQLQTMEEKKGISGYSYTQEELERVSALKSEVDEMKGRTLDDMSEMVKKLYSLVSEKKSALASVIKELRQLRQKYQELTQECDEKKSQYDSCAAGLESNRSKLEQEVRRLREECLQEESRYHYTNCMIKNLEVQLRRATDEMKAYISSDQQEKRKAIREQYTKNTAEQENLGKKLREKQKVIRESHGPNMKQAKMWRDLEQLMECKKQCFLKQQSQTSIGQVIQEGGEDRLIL

T2: 3xHA-tagged human IFT46 (human) (UniProt Q9NQC8)
T2 sequence: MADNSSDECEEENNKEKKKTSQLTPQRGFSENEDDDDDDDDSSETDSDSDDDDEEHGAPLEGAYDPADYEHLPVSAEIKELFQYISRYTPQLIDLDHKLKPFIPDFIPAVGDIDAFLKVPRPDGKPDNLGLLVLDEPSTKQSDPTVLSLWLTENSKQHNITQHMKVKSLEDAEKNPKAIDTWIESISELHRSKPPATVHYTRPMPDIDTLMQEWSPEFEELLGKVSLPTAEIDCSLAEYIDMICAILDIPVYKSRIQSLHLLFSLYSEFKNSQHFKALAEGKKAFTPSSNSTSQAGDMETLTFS

T3: 3xHA-tagged human IFT52 (human) (UniProt Q9Y366)
T3 sequence: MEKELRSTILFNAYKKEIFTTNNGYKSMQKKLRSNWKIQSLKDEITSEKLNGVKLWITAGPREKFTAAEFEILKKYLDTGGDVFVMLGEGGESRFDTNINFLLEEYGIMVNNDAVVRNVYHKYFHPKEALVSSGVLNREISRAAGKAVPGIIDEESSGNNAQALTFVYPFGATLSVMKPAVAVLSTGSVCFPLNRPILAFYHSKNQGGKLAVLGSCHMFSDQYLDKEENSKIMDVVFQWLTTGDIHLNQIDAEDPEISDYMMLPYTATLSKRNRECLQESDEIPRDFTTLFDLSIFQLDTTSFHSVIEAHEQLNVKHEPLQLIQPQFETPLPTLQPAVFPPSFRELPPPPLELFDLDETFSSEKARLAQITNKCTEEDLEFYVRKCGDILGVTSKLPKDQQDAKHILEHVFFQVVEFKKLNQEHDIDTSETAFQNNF

T4: 3xHA-tagged human IFT46 (human), Q9NQC8
T4 chain: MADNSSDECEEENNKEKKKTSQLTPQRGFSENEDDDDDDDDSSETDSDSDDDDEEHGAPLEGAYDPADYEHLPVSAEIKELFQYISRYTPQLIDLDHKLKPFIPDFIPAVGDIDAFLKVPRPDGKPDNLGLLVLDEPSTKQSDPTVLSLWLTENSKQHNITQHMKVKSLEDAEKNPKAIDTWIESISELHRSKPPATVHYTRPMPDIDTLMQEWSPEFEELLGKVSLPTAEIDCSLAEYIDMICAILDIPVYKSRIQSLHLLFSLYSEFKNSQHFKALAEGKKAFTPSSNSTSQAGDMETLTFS


Legend:
[1] = biological target: T1, Flag-IFT81; assay: co-IP; 3xHA-IFT74 or 3xHA-IFT74 lacking exon 2 co-expressed with Flag-IFT81; precipitated with anti-Flag antibody, blot stained with anti-HA antibody
[2] = biological target: T2, 3xHA-tagged human IFT46 (human); assay: co-IP; 3xHA-tagged human CBY, IFT46 or IFT52 co-expressed in HEK293T cells with Flag-tagged IFT74 or IFT74Δexon2; extracts precipitated with HA beads, eluates probed for Flag
[3] = biological target: T3, 3xHA-tagged human IFT52 (human); assay: as above
[4] = biological target: T4, 3xHA-tagged human IFT46 (human), Q9NQC8; assay: as above; conditions: remark: other sources report otherwise

| binding [1] | binding [3] | Binder | other results |
| --- | --- | --- | --- |
| binds |  | 3xHA-IFT74 (wildtype) (protein, UniProt Q96LB3-1 1-600) MASNHKSSAARPVSRGGVGLTGRPPSGIRPLSGNIRVATAMPPGTARPGSRGCPIGTGGVLSSQIKVAHRPVTQQGLTGMKTGTKGPQRQILDKSYYLGLLRSKISELTTEVNKLQKGIEMYNQENSVYLSYEKRAETLAVEIKELQGQLADYNMLVDKLNTNTEMEEVMNDYNMLKAQNDRETQSLDVIFTERQAKEKQIRSVEEEIEQEKQATDDIIKNMSFENQVKYLEMKTTNEKLLQELDTLQQQLDSQNMKKESLEAEIAHSQVKQEAVLLHEKLYELESHRDQMIAEDKSIGSPMEEREKLLKQIKDDNQEIASMERQLTDTKEKINQFIEEIRQLDMDLEEHQGEMNQKYKELKKREEHMDTFIETFEETKNQELKRKAQIEANIVALLEHCSRNINRIEQISSITNQELKMMQDDLNFKSTEVQKSQSTAQNLTSDIQRLQLDLQKMELLESKMTEEQHSLKSKIKQMTTDLEIYNDLPALKSSGEEKIKKLHQERMILSTHRNAFKKIMEKQNIEYEALKTQLQENETHSQLTNLERKWQHLEQNNFAMKEFIATKSQESDYQPIKKNVTKQIAEYNKTIVDALHSTSGN |  |
|  | binds | Flag-tagged IFT74 (protein, UniProt Q96LB3-1 1-600) MASNHKSSAARPVSRGGVGLTGRPPSGIRPLSGNIRVATAMPPGTARPGSRGCPIGTGGVLSSQIKVAHRPVTQQGLTGMKTGTKGPQRQILDKSYYLGLLRSKISELTTEVNKLQKGIEMYNQENSVYLSYEKRAETLAVEIKELQGQLADYNMLVDKLNTNTEMEEVMNDYNMLKAQNDRETQSLDVIFTERQAKEKQIRSVEEEIEQEKQATDDIIKNMSFENQVKYLEMKTTNEKLLQELDTLQQQLDSQNMKKESLEAEIAHSQVKQEAVLLHEKLYELESHRDQMIAEDKSIGSPMEEREKLLKQIKDDNQEIASMERQLTDTKEKINQFIEEIRQLDMDLEEHQGEMNQKYKELKKREEHMDTFIETFEETKNQELKRKAQIEANIVALLEHCSRNINRIEQISSITNQELKMMQDDLNFKSTEVQKSQSTAQNLTSDIQRLQLDLQKMELLESKMTEEQHSLKSKIKQMTTDLEIYNDLPALKSSGEEKIKKLHQERMILSTHRNAFKKIMEKQNIEYEALKTQLQENETHSQLTNLERKWQHLEQNNFAMKEFIATKSQESDYQPIKKNVTKQIAEYNKTIVDALHSTSGN | binding [2]: binds |
| binds |  | 3xHA-IFT74 lacking exon 2 (domain or fragment, UniProt Q96LB3-1 41-600) MPPGTARPGSRGCPIGTGGVLSSQIKVAHRPVTQQGLTGMKTGTKGPQRQILDKSYYLGLLRSKISELTTEVNKLQKGIEMYNQENSVYLSYEKRAETLAVEIKELQGQLADYNMLVDKLNTNTEMEEVMNDYNMLKAQNDRETQSLDVIFTERQAKEKQIRSVEEEIEQEKQATDDIIKNMSFENQVKYLEMKTTNEKLLQELDTLQQQLDSQNMKKESLEAEIAHSQVKQEAVLLHEKLYELESHRDQMIAEDKSIGSPMEEREKLLKQIKDDNQEIASMERQLTDTKEKINQFIEEIRQLDMDLEEHQGEMNQKYKELKKREEHMDTFIETFEETKNQELKRKAQIEANIVALLEHCSRNINRIEQISSITNQELKMMQDDLNFKSTEVQKSQSTAQNLTSDIQRLQLDLQKMELLESKMTEEQHSLKSKIKQMTTDLEIYNDLPALKSSGEEKIKKLHQERMILSTHRNAFKKIMEKQNIEYEALKTQLQENETHSQLTNLERKWQHLEQNNFAMKEFIATKSQESDYQPIKKNVTKQIAEYNKTIVDALHSTSGN |  |
|  |  | Flag-tagged IFT74Δexon2, Q96LB3-1 41-600 (domain or fragment) MPPGTARPGSRGCPIGTGGVLSSQIKVAHRPVTQQGLTGMKTGTKGPQRQILDKSYYLGLLRSKISELTTEVNKLQKGIEMYNQENSVYLSYEKRAETLAVEIKELQGQLADYNMLVDKLNTNTEMEEVMNDYNMLKAQNDRETQSLDVIFTERQAKEKQIRSVEEEIEQEKQATDDIIKNMSFENQVKYLEMKTTNEKLLQELDTLQQQLDSQNMKKESLEAEIAHSQVKQEAVLLHEKLYELESHRDQMIAEDKSIGSPMEEREKLLKQIKDDNQEIASMERQLTDTKEKINQFIEEIRQLDMDLEEHQGEMNQKYKELKKREEHMDTFIETFEETKNQELKRKAQIEANIVALLEHCSRNINRIEQISSITNQELKMMQDDLNFKSTEVQKSQSTAQNLTSDIQRLQLDLQKMELLESKMTEEQHSLKSKIKQMTTDLEIYNDLPALKSSGEEKIKKLHQERMILSTHRNAFKKIMEKQNIEYEALKTQLQENETHSQLTNLERKWQHLEQNNFAMKEFIATKSQESDYQPIKKNVTKQIAEYNKTIVDALHSTSGN | binding [4]: binds |
|  | binds | Flag-tagged IFT74Δexon2 (domain or fragment, UniProt Q96LB3-1 41-600) MPPGTARPGSRGCPIGTGGVLSSQIKVAHRPVTQQGLTGMKTGTKGPQRQILDKSYYLGLLRSKISELTTEVNKLQKGIEMYNQENSVYLSYEKRAETLAVEIKELQGQLADYNMLVDKLNTNTEMEEVMNDYNMLKAQNDRETQSLDVIFTERQAKEKQIRSVEEEIEQEKQATDDIIKNMSFENQVKYLEMKTTNEKLLQELDTLQQQLDSQNMKKESLEAEIAHSQVKQEAVLLHEKLYELESHRDQMIAEDKSIGSPMEEREKLLKQIKDDNQEIASMERQLTDTKEKINQFIEEIRQLDMDLEEHQGEMNQKYKELKKREEHMDTFIETFEETKNQELKRKAQIEANIVALLEHCSRNINRIEQISSITNQELKMMQDDLNFKSTEVQKSQSTAQNLTSDIQRLQLDLQKMELLESKMTEEQHSLKSKIKQMTTDLEIYNDLPALKSSGEEKIKKLHQERMILSTHRNAFKKIMEKQNIEYEALKTQLQENETHSQLTNLERKWQHLEQNNFAMKEFIATKSQESDYQPIKKNVTKQIAEYNKTIVDALHSTSGN |  |
